Assay results: US20190381127A1, “COMBINATION THERAPY WITH A6, CHEMOTHERAPEUTIC AGENTS, RADIATION THERAPY, OR A COMBINATION THEREOF FOR THE TREATMENT OF CANCER” (Splash Pharmaceuticals, Inc., priority 2016, published 2019)
No constants are given. Whether binding was seen depends on the method and setting. Some entries that bind do so weakly or less than the wild type.

Chains of the proteins cited; added tags and fusions are not shown. Residues count along the entry.
UniProt P16070, residues 21-742: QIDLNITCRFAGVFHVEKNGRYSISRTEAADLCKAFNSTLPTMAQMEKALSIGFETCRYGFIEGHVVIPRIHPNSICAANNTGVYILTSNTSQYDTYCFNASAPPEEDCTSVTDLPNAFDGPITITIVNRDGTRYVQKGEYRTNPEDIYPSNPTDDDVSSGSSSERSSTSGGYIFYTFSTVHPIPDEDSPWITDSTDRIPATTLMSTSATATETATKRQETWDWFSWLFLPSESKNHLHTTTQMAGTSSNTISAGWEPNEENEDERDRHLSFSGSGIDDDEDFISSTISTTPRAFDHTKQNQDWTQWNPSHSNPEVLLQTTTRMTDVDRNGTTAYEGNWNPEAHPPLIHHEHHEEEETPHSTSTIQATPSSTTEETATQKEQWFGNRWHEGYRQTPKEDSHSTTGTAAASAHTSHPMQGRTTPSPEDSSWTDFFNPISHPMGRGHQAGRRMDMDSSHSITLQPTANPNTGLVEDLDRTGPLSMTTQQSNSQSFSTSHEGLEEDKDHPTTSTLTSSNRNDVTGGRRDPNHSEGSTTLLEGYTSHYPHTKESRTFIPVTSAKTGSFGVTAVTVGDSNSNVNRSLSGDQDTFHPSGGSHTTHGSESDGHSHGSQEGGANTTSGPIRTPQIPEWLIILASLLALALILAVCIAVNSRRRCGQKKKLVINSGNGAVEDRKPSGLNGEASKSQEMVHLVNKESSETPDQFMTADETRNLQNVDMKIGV

Target: CD44 on human ovarian SKOV3 cells (human) (UniProt P16070)
Experiment: cross-linking of A6 to SKOV3 cells, immunoprecipitation and immunoblot

binding: binds
B1: A6 peptide (Ac-KPSSPPEE-NH2) (peptide)
peptide: KPSSPPEE
modifications: N-terminal acetyl (Ac-), C-terminal amide (-NH2)
